The text below walks through data of the supplement of paper PMC10849652.

Sequences of proteins named here, by UniProt entry; tags and fusion partners are left off. A change or cut given only in a name is not applied to a line headed by its entry.
UniProt P13051, whole entry, looked up: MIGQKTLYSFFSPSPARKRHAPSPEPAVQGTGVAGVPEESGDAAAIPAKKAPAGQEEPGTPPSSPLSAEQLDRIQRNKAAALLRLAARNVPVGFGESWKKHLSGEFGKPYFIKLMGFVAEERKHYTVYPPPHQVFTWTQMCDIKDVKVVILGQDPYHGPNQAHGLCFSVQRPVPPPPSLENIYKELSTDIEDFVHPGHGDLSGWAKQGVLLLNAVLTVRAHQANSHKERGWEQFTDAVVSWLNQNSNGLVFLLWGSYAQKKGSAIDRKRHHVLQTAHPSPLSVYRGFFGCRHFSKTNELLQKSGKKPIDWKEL
UniProt C9J7I0: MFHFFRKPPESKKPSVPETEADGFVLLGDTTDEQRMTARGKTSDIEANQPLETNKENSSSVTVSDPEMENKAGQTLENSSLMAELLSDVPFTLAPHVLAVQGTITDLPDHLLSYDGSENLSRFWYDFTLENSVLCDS
UniProt O14795: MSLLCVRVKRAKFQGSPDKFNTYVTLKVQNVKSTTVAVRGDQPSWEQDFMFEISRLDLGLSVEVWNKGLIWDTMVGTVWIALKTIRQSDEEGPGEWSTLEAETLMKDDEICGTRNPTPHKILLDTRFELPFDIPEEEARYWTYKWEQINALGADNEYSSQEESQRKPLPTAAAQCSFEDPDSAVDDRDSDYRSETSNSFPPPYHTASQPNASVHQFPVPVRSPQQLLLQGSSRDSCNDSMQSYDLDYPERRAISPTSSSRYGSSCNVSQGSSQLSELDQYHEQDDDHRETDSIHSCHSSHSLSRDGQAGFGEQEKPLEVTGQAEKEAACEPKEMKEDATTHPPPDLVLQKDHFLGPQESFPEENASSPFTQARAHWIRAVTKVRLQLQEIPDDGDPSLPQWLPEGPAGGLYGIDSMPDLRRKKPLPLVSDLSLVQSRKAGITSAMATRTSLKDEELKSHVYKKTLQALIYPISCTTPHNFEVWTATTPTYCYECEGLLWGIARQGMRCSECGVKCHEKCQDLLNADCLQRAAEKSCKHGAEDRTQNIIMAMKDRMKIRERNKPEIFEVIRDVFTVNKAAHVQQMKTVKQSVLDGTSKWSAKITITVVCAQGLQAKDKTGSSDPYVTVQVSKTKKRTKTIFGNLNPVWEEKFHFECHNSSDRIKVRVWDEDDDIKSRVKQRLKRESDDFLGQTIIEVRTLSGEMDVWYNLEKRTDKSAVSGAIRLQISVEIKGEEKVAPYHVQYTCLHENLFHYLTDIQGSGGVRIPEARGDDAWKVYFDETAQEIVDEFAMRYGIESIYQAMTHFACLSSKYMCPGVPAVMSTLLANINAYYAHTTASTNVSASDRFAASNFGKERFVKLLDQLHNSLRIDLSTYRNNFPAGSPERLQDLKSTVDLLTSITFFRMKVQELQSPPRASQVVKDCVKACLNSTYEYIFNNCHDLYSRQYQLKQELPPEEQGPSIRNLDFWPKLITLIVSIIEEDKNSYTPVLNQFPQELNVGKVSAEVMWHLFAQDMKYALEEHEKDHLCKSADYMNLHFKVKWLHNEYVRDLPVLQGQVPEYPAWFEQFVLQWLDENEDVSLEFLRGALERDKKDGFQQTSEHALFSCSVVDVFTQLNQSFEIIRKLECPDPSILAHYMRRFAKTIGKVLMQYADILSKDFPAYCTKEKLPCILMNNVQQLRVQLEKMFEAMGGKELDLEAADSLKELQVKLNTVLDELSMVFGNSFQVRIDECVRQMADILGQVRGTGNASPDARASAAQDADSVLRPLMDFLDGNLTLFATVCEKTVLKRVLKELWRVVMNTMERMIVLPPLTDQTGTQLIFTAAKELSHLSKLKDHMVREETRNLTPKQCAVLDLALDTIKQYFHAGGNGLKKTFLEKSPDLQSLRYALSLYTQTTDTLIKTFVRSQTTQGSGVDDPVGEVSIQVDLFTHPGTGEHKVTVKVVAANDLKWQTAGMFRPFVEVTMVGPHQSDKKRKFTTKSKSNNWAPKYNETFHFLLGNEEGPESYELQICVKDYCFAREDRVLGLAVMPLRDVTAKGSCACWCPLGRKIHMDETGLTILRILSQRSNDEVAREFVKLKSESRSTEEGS
UniProt Q70CQ3: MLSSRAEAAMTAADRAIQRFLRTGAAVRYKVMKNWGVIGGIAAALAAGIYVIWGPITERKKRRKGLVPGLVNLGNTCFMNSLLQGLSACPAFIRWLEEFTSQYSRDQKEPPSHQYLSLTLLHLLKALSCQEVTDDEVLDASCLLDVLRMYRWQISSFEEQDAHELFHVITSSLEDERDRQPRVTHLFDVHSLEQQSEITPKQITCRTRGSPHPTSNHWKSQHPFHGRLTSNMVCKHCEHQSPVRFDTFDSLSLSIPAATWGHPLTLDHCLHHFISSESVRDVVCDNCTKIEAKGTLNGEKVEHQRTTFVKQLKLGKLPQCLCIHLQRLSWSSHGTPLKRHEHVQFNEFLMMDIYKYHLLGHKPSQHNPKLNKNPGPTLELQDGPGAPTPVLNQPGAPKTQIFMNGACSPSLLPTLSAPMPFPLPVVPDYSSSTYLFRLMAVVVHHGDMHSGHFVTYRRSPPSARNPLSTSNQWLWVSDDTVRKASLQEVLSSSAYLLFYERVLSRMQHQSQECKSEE
UniProt Q9UPT9: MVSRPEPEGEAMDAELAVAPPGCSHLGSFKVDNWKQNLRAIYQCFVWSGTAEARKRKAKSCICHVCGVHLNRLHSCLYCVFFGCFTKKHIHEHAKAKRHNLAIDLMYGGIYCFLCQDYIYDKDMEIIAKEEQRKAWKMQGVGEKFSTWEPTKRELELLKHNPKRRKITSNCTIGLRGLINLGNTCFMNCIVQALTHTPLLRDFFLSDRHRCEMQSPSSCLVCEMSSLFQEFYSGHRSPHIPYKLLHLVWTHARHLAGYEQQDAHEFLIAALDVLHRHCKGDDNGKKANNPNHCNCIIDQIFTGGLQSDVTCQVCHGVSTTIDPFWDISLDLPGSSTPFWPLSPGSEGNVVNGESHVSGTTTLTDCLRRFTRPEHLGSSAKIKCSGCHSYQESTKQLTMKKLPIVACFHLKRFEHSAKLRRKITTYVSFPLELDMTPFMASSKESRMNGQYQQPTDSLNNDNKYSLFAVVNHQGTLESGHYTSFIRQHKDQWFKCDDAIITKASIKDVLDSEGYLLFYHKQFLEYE
UniProt P40337, whole entry, looked up: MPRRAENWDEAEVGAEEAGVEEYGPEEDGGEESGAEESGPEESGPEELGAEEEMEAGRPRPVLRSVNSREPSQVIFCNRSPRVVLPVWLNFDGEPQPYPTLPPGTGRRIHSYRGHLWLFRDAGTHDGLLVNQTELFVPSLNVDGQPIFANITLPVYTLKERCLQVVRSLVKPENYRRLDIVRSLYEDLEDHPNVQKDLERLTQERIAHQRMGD
UniProt Q8TEY7: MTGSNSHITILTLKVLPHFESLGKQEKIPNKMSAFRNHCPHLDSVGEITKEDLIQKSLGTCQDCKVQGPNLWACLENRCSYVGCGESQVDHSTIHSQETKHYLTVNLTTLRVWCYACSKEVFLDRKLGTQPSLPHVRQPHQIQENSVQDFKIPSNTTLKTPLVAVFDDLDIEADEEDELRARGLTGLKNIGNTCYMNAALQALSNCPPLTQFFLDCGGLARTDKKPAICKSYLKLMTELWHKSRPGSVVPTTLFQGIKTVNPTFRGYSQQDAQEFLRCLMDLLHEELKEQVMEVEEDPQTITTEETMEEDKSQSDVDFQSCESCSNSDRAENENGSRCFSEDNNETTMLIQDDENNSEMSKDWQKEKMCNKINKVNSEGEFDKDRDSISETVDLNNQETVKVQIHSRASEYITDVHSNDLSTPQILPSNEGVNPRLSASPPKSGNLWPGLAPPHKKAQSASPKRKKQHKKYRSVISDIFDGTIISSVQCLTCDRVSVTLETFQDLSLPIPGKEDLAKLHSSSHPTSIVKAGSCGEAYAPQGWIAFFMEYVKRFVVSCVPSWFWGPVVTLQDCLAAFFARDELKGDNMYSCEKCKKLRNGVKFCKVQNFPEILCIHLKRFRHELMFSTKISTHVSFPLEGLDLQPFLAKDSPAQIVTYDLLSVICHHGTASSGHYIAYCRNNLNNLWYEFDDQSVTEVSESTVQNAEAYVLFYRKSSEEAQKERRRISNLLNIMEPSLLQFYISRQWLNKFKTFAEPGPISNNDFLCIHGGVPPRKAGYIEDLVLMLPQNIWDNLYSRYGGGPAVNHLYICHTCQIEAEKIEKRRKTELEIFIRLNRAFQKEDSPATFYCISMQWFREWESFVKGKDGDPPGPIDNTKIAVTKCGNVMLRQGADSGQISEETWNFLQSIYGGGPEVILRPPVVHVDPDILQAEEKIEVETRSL
UniProt Q9P275: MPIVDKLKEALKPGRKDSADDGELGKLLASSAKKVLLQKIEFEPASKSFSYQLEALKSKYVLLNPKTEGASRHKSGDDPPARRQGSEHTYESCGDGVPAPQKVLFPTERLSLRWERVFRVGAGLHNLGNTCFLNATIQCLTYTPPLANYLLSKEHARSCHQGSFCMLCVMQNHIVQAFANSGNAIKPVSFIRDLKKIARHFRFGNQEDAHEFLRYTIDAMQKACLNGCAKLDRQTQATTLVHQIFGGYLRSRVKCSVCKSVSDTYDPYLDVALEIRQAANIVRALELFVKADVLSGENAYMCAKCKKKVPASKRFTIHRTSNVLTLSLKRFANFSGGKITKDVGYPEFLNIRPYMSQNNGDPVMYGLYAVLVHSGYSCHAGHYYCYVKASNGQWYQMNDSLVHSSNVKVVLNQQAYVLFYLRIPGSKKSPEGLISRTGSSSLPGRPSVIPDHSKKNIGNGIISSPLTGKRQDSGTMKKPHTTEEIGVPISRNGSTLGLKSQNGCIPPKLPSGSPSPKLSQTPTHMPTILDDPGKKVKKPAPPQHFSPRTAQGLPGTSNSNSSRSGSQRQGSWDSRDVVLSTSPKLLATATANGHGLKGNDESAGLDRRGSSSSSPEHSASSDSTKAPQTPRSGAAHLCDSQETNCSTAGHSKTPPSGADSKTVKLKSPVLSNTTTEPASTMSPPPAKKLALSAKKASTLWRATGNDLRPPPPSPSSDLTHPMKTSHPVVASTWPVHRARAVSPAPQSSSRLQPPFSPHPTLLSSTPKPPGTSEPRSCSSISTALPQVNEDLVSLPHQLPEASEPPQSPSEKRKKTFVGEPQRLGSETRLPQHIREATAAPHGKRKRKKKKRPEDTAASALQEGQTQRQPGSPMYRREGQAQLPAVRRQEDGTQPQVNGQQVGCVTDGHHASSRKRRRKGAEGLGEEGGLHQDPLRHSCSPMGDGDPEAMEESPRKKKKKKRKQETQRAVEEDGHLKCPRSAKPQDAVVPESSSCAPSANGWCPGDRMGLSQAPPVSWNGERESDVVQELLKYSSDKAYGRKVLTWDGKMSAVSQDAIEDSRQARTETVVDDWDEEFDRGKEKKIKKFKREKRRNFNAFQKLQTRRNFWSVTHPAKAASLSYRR
UniProt O75317, whole entry, looked up: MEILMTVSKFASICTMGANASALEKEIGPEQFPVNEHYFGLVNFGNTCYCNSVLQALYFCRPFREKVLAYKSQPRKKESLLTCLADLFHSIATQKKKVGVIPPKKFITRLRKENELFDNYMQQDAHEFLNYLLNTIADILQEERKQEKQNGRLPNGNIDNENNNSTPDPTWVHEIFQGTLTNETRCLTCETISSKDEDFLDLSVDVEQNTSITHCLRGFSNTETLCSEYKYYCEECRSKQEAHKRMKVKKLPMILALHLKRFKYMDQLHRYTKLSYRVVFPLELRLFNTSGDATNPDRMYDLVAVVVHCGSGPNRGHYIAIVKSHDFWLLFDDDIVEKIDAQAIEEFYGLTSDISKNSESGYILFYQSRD
UniProt Q92738: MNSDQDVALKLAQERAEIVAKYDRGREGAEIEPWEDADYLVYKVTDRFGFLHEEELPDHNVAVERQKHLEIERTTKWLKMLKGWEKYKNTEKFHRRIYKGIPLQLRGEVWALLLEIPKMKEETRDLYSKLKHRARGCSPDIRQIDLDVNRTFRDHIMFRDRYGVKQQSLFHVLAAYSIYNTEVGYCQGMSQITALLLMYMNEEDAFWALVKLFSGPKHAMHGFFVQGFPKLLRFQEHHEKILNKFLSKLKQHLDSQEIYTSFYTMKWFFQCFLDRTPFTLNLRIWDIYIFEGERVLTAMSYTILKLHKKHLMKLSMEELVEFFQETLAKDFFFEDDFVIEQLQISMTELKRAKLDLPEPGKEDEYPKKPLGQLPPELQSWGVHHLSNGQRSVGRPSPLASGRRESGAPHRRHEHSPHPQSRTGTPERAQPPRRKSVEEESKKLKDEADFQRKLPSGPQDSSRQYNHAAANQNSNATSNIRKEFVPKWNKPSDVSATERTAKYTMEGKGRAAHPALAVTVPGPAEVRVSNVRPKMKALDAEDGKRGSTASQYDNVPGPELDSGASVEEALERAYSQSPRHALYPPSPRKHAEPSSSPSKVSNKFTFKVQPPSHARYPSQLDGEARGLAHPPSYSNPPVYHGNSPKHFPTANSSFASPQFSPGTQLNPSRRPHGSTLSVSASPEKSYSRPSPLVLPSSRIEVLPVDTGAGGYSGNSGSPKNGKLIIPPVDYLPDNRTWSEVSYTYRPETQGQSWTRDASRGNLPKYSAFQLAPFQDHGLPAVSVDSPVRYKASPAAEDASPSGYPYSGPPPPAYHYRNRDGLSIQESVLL

The list shows a part of the results.

Compound in the first assay: C[C@H](Nc1ncnc2nc[nH]c12)c1cc2cccc(Cl)c2c(=O)n1-c1ccccc1 [duvelisib]
Briefly: log2 fold change, soluble protein after heating vs DMSO (PISA); higher = thermal stabilisation; K562 lysate, 10 uM; active = over 0.2 and 3.5 SD of the protein, either way, in both replicates (recomputed). The procedure, abridged: (§1)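 Values give the log-two fold change in thermal stability against solvent controls, from duplicates. Crude K562 extract at 1 mg/mL protein, made by dounce homogenisation in PBS pH 7.4 with 1 mM MgCl2, was treated with 10 μM compound for 30 min. After 3 min heating across 48°C-58°C, aliquots were pooled, adjusted to 0.5% NP-40 at 4°C and centrifuged at 21,000xg for 90 min. The supernatant was measured by TMTpro 16plex LC-MS/MS with channel sums equalised.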
For the target USP19 isoform 4 (UniProt O94966), the log2 fold change is inactive: -0.05.
For UNG (UniProt P13051), the log2 fold change is inactive: 0.068.
As to UMAD1 (UniProt C9J7I0), the log2 fold change was inactive: 0.05.
Same read-out and setting: next, UNC13B isoform 2 (UniProt O14795): inactive: -0.064; VGF (UniProt O15240): inactive: -0.022; USP30 (UniProt Q70CQ3): inactive: -0.056.
On the same count and under the same terms, next, UNKL (UniProt E9PDK2): inactive: 0.184; USP20 (UniProt Q9Y2K6): inactive: 0.093; UQCRB (UniProt E5RHG9): inactive: -0.056.
On the same count and under the same terms, next, URGCP (UniProt Q8TCY9): inactive: 0.158; USP40 isoform 3 (UniProt Q9NVE5): inactive: 0.134.
UGCG (UniProt Q16739): the log2 fold change is inactive: 0.126.
On the same count and under the same terms, next, VASN (UniProt Q6EMK4): inactive: -0.119; USP22 (UniProt Q9UPT9): inactive: -0.006; VHL (UniProt P40337): inactive: 0.148.
Still for that read-out and setting: next, VAV2 (UniProt P52735): inactive: -0.069; VGLL4 isoform 4 (UniProt Q14135): inactive: -0.027.
The same measure, in the same setting: next, USP15 isoform 3 (UniProt Q9Y4E8): inactive: -0.049; UNC119 (UniProt Q13432): inactive: 0.029; USP33 (UniProt Q8TEY7): inactive: 0.227.

Compound in the next assay: Cc1cc(Nc2cc(CN3CCOCC3)c3nc(C)c(Cc4ccc(Cl)cc4F)n3n2)n[nH]1 [gandotinib]
Described as above. The procedure, abridged:
as §1
Turning to USP36 (UniProt Q9P275), the log2 fold change was inactive: 0.079.
On the same count and under the same terms, next, VEGFA (UniProt H0YBI8): inactive: 0.053.
On the same count and under the same terms, next, UNG (UniProt P13051): inactive: 0.052.
Same read-out and setting: next, UMAD1 (UniProt C9J7I0): inactive: -0.157; USP12 (UniProt O75317): inactive: 0.096.
Turning to USP30 (UniProt Q70CQ3), the log2 fold change was inactive: -0.07.
The same measure, in the same setting: next, VEGFA isoform 14 (UniProt P15692): inactive: -0.167.
Still for that read-out and setting: next, USP6NL isoform 2 (UniProt Q92738): inactive: 0.029.
Same read-out and setting: next, UTRN isoform 2 (UniProt P46939): inactive: 0.04; UNC13A (UniProt Q9UPW8): inactive: 0.331.
As for USP22 (UniProt Q9UPT9), the log2 fold change was inactive: -0.148.
The same measure, in the same setting: next, VHL (UniProt P40337): inactive: -0.08; VGLL4 isoform 4 (UniProt Q14135): inactive: 0.063.
As for USP33 (UniProt Q8TEY7), the log2 fold change was inactive: -0.237.

Compound in the next assay: Cc1cc(Nc2cc(N3CCN(C)CC3)nc(Sc3ccc(NC(=O)C4CC4)cc3)n2)n[nH]1 [tozasertib]
Described as above. The procedure, abridged:
as §1
Turning to USP19 isoform 4 (UniProt O94966), the log2 fold change was inactive: -0.058.
On the same count and under the same terms, next, USP36 (UniProt Q9P275): inactive: 0.107; UNG (UniProt P13051): inactive: 0.15.
On the same count and under the same terms, next, UNC13B isoform 2 (UniProt O14795): inactive: 0.037.
The same measure, in the same setting: next, USP12 (UniProt O75317): inactive: -0.082; USP37 (UniProt Q86T82): inactive: -0.035; VGF (UniProt O15240): inactive: 0.274.
On to USP6NL isoform 2 (UniProt Q92738), for which the log2 fold change is inactive: -0.098.
On the same count and under the same terms, next, UNKL (UniProt E9PDK2): inactive: -0.039; USP20 (UniProt Q9Y2K6): inactive: 0.074; UTRN isoform 2 (UniProt P46939): inactive: -0.077.
The same measure, in the same setting: next, VASN (UniProt Q6EMK4): inactive: 0.08; USP22 (UniProt Q9UPT9): inactive: 0.036; VHL (UniProt P40337): inactive: 0.

Compound in another assay: Cc1ccc(-n2nc(C(C)(C)C)cc2NC(=O)Nc2ccc(OCCN3CCOCC3)c3ccccc23)cc1 [doramapimod]
The description is as above. The procedure, abridged:
as §1
With USP36 (UniProt Q9P275), the log2 fold change is inactive: 0.01.
Same read-out and setting: next, UMAD1 (UniProt C9J7I0): inactive: 0.017; USP54 (UniProt Q70EL1): inactive: -0.087; UNC13B isoform 2 (UniProt O14795): inactive: 0.07.
Same read-out and setting: next, USP12 (UniProt O75317): inactive: 0.198.
USP37 (UniProt Q86T82): the log2 fold change is inactive: -0.093.
Take USP30 (UniProt Q70CQ3): the log2 fold change is inactive: -0.153.
Still for that read-out and setting: next, UHRF2 (UniProt Q96PU4): inactive: -0.055; VEGFA isoform 14 (UniProt P15692): inactive: -0.032; USP6NL isoform 2 (UniProt Q92738): inactive: -0.003.
The same measure, in the same setting: next, USP27X (UniProt A6NNY8): inactive: -0.012; VCPKMT (UniProt Q9H867): inactive: 0.026.
Same read-out and setting: next, UNKL (UniProt E9PDK2): inactive: 0.07; USP20 (UniProt Q9Y2K6): inactive: -0.019.
As to USP40 isoform 3 (UniProt Q9NVE5), the log2 fold change was inactive: 0.005.
The same measure, in the same setting: next, UGCG (UniProt Q16739): inactive: -0.021.
Still for that read-out and setting: next, USP22 (UniProt Q9UPT9): inactive: -0.029; VHL (UniProt P40337): inactive: -0.011; UCP2 (UniProt P55851): inactive: -0.141.
The same measure, in the same setting: next, VGLL4 isoform 4 (UniProt Q14135): inactive: 0.067; USP15 isoform 3 (UniProt Q9Y4E8): inactive: -0.024.
For the target UNC119 (UniProt Q13432), the log2 fold change was inactive: 0.111.
Take USP33 (UniProt Q8TEY7): the log2 fold change was inactive: 0.182.
